# Reference: the supplement of paper PMC12889115
# Some of the results follow. These are raw signals, not scaled to a control.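 First-pass screen: polymyxin B was added at a level that permeabilizes the Salmonella outer membrane while sparing the inner membrane. DMSO wells, with and without polymyxin B, defined maximum growth. Because plates differed from one another, each plate's data were ranked separately and the compounds with the lowest OD600 were carried forward as hits.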
# Tested on: Salmonella enterica serovar Typhimurium SL1344
# Assay: bacterial growth OD600 after 18 h with compound and polymyxin B; higher = more bacterial growth (less inhibition)
# Conditions: 50 µM, Mueller-Hinton broth
smiles,measurement,setting,value
Cc1cc(CN(C)C(=O)c2cc(Cn3ccc4ccccc43)[nH]n2)on1,bacterial growth OD600,polymyxin B 1 µg/mL,0.886
CC(NC(=O)CCC1(Cc2ccco2)CCC(=O)N1)c1cnn(-c2ccccc2)c1 (stereo unspecified),bacterial growth OD600,polymyxin B 0.75 µg/mL,0.849
Cc1ccc(CN2CCC(CN(C)Cc3c[nH]nc3-c3ccc(F)cc3)CC2)o1,bacterial growth OD600,polymyxin B 1 µg/mL,0.843
C/C(=C\c1ccco1)CN1CCC(N2CCC(C(=O)NCc3ccccn3)CC2)CC1,bacterial growth OD600,polymyxin B 1 µg/mL,0.893
COc1ccc(CNC(=O)CCC2CCCN(CCCC(F)(F)F)C2)c(OC)c1 (stereo unspecified),bacterial growth OD600,polymyxin B 1 µg/mL,1.11
CCn1cc(C(=O)N2CCCC(N3CCN(c4cccc(C(F)(F)F)c4)CC3)C2)cn1 (stereo unspecified),bacterial growth OD600,polymyxin B 1 µg/mL,0.913
CCOc1ccc2nc(CN3CC[C@@H](N4CCOCC4)[C@H](O)C3)ccc2c1,bacterial growth OD600,polymyxin B 0.75 µg/mL,0.803
COc1ccc(-c2ccccc2NC(=O)C2CCCN(CC=C(C)C)C2)cc1 (stereo unspecified),bacterial growth OD600,polymyxin B 0.75 µg/mL,0.971
CN(Cc1cnc2ccccn12)C(=O)c1cc(COc2ccc(F)cc2F)on1,bacterial growth OD600,polymyxin B 1 µg/mL,0.891
Cc1csc(CNC(=O)C2CCCN(C3CCN(C(C)C)CC3)C2)n1 (stereo unspecified),bacterial growth OD600,polymyxin B 0.75 µg/mL,0.881
CCCCNC(=O)N1CCCC(C(=O)c2cc(C)c(OC)c(C)c2)C1 (stereo unspecified),bacterial growth OD600,polymyxin B 1 µg/mL,0.928
COc1ccc(CCN2C(=O)O[C@@H]3CN(Cc4ccc(C)s4)C[C@@H]32)cc1,bacterial growth OD600,polymyxin B 0.75 µg/mL,0.269
CC(CC1(C)CC1)N1CCC(N2CCC(C(=O)NCc3cccnc3)CC2)CC1 (stereo unspecified),bacterial growth OD600,polymyxin B 1 µg/mL,1.21
Cc1cc(C)n(CCNC(=O)CC2C(=O)NCCN2Cc2cccc3ccccc23)n1 (stereo unspecified),bacterial growth OD600,polymyxin B 1 µg/mL,0.964
COc1ccc(-c2noc(CN3CCC(C(O)CC(C)C)CC3)n2)cc1 (stereo unspecified),bacterial growth OD600,polymyxin B 1 µg/mL,0.826
COc1cc(CN2CCN(Cc3cnc(C)s3)CC2CCO)cc(OC)c1 (stereo unspecified),bacterial growth OD600,polymyxin B 1 µg/mL,0.95
CC(NC(=O)c1ccc(OC2CCN(C(=O)C3CC3)CC2)cc1)c1ccc(Cl)cc1 (stereo unspecified),bacterial growth OD600,polymyxin B 1 µg/mL,1.18
O=C(c1ccc(-c2ccccc2)cc1)C1CCCN(C(=O)CCC(F)(F)F)C1 (stereo unspecified),bacterial growth OD600,polymyxin B 1 µg/mL,0.859
Cc1nc(CNCc2cccnc2Oc2ccccc2)c[nH]1,bacterial growth OD600,polymyxin B 1 µg/mL,1.03
COc1ccc(C(=O)N2CCN(C)C(=O)[C@@H]2C)cc1OC1CCN(C(C)=O)CC1,bacterial growth OD600,polymyxin B 1 µg/mL,0.885
CN(CCc1ccccn1)[C@@H]1CCN(C/C=C/c2ccccc2)C[C@H]1O,bacterial growth OD600,polymyxin B 0.75 µg/mL,0.806
COc1ccccc1CCC(=O)Nc1cnn(CC(=O)NCc2cc(F)cc(C(F)(F)F)c2)c1,bacterial growth OD600,polymyxin B 0.75 µg/mL,0.667
COc1cc(CN2CCCC(C(=O)c3cc(C)c(OC)c(C)c3)C2)cc2c1OCO2 (stereo unspecified),bacterial growth OD600,polymyxin B 1 µg/mL,0.855
CN(C)CCN(CC1CCCN(Cc2ccccc2F)C1)C(=O)c1cc(C2CC2)on1 (stereo unspecified),bacterial growth OD600,polymyxin B 1 µg/mL,1.03
Cc1nc(N2CCCC(C(=O)N3CCCCCC3)C2)nc2cc(S(C)(=O)=O)ccc12 (stereo unspecified),bacterial growth OD600,polymyxin B 0.75 µg/mL,0.724
CCn1cnnc1CN(C)c1ccc(-c2nc(C)no2)cn1,bacterial growth OD600,polymyxin B 1 µg/mL,1.21
CN1CCC(N(C)C(=O)CC(c2cccc(O)c2)c2cccc(Cl)c2)CC1 (stereo unspecified),bacterial growth OD600,polymyxin B 0.75 µg/mL,0.71
CC(Cn1cncn1)Nc1ccc(-c2nc(Cc3ccccc3)no2)cn1 (stereo unspecified),bacterial growth OD600,polymyxin B 0.75 µg/mL,0.794
COc1ccc(CC2=NOC(C(=O)NCCC3COc4ccccc4O3)C2)cc1 (stereo unspecified),bacterial growth OD600,polymyxin B 0.75 µg/mL,0.79
C=CCNC(=O)c1coc(COc2ccc3ccc(OC)cc3c2)n1,bacterial growth OD600,polymyxin B 1 µg/mL,0.841
COCCN(C)C(=O)c1ccc(OC2CCN(C3CCCC3)CC2)c(OC)c1,bacterial growth OD600,polymyxin B 0.75 µg/mL,0.797

# An excerpt from above in order of molar mass, largest number first.
smiles,measurement,setting,value
COc1ccccc1CCC(=O)Nc1cnn(CC(=O)NCc2cc(F)cc(C(F)(F)F)c2)c1,bacterial growth OD600,polymyxin B 0.75 µg/mL,0.667
CC(NC(=O)c1ccc(OC2CCN(C(=O)C3CC3)CC2)cc1)c1ccc(Cl)cc1 (stereo unspecified),bacterial growth OD600,polymyxin B 1 µg/mL,1.18
C/C(=C\c1ccco1)CN1CCC(N2CCC(C(=O)NCc3ccccn3)CC2)CC1,bacterial growth OD600,polymyxin B 1 µg/mL,0.893
CN(Cc1cnc2ccccn12)C(=O)c1cc(COc2ccc(F)cc2F)on1,bacterial growth OD600,polymyxin B 1 µg/mL,0.891
Cc1ccc(CN2CCC(CN(C)Cc3c[nH]nc3-c3ccc(F)cc3)CC2)o1,bacterial growth OD600,polymyxin B 1 µg/mL,0.843
COc1ccc(CC2=NOC(C(=O)NCCC3COc4ccccc4O3)C2)cc1 (stereo unspecified),bacterial growth OD600,polymyxin B 0.75 µg/mL,0.79
COc1cc(CN2CCN(Cc3cnc(C)s3)CC2CCO)cc(OC)c1 (stereo unspecified),bacterial growth OD600,polymyxin B 1 µg/mL,0.95
CC(Cn1cncn1)Nc1ccc(-c2nc(Cc3ccccc3)no2)cn1 (stereo unspecified),bacterial growth OD600,polymyxin B 0.75 µg/mL,0.794
CCCCNC(=O)N1CCCC(C(=O)c2cc(C)c(OC)c(C)c2)C1 (stereo unspecified),bacterial growth OD600,polymyxin B 1 µg/mL,0.928
